Test results reported in PMC7788595.
These are yes or no findings as the source states them, for the method shown. Some binding calls cover weakened binding; strength is not graded here. Sequences can lack the tags named with a protein.

The chains behind the UniProt entries cited, without tags or fusion partners. Residues count along the entry.
UniProt P19838, residues 1-433: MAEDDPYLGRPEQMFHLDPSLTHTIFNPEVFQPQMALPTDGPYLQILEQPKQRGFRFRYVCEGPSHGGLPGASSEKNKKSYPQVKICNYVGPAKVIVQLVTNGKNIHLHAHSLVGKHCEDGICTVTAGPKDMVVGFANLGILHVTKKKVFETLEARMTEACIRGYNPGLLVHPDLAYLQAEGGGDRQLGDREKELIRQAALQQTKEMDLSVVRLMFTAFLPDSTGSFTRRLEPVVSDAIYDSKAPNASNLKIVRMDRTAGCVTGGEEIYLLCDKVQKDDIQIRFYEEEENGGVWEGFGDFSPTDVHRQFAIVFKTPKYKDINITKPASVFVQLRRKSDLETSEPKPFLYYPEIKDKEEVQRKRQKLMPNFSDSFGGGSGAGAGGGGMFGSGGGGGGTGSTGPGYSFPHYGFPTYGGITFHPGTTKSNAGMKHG

Target: T1, sfGFP-Bcl3 (UniProt P20749)
T1 sequence: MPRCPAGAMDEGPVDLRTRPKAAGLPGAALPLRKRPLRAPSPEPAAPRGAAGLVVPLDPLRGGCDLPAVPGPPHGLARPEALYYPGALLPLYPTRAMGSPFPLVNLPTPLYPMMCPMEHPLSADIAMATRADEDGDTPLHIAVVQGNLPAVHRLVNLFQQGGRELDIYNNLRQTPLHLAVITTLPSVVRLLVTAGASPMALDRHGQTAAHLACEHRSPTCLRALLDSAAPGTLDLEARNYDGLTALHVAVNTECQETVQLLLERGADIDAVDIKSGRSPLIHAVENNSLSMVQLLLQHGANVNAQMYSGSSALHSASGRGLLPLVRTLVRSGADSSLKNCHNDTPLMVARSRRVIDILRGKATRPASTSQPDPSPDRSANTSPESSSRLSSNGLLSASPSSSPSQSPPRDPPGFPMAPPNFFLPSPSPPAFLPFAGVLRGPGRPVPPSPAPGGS
Assay: co-purification; the two fusion proteins produced and purified as the complex (Supporting Methods, Figure S8b)

Substance: P50-Venus (from UniProt P19838 1-433)
- binding: binds
